The values that follow come from patent publication US20240218069A1.

No constants are given. Whether binding was seen depends on the method and setting. Some entries that bind do so weakly or less than the wild type.

T1: human B7H3 (human) (UniProt Q5ZPR3)
T1 sequence (looked up): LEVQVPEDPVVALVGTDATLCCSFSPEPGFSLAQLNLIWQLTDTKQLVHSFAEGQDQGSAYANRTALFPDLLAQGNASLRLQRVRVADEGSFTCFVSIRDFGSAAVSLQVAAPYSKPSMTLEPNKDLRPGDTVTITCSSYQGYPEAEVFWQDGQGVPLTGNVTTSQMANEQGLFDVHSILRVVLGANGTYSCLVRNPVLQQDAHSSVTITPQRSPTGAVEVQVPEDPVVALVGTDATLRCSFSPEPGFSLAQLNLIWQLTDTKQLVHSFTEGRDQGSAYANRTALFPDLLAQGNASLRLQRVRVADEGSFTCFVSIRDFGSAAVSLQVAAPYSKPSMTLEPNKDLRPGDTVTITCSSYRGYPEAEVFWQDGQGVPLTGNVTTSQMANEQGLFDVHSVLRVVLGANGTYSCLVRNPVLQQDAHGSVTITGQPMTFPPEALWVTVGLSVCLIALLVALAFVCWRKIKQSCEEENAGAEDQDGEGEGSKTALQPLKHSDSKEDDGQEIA

B1: Ly387 (antibody, human IgG1, kappa, V domains shown)
VH: QVQLQQPGAELVKPGASVKLSCKASGYTFTSYWMHWVKQRPGQGLEWIGMIHPNSGGTNYNEKFKGKGTLTVDKSSSTAYMQLSSLTSDDSAVYYCVTSQATWFAYWGQGTLVTVSA
VL: ENVLTQSPAIMSVSPGEKVTMTCRASSSVSSSYLHWYQQKSGASPKFWIYSTSNLASGVPARFSGSGSGTSYSLTISSVEAEDAATYYCQHYSGYPLTFGAGTKLELRR
B2: Ly383 (antibody, human IgG1, kappa, V domains shown)
VH: EVQLQQSGPELVKPGASVKMSCKASGYTFTSYVMHWVKQKPGQGLEWIGYINPYNDGTECTDKFKGKATLTSDKSSSTAYMELSSLTSEDSAVYYCASIYYGYDGTYFGVWGAGTSVTVSS
VL: QIVLSQSPAILSTSPGEKVTMTCRASSSVSYMHWYQQKPGSSPKPWIYATSNLASGVPARFSGSRSGTSYSLTISRVEAEDAATYYCQQWSSNTLTFGGGTKLELKR
B3: Ly1442 (antibody, human IgG1, kappa, V domains shown)
VH: QVQLVQSGAEVKKPGASVKVSCKASGYTFTSYWMHWVRQAPGQGLEWMGMIHPNSGGTNYNEKFKGRVTMTRDTSISTAYMELSRLRSDDTAVYYCARSQATWFAYWGQGTLVTVSS
VL: EIVLTQSPATLSLSPGERATLSCRASSSVSSSYLHWYQQKPGQAPRLLIYSTSNLASGIPARFSGSGSGTDFTLTISSLEPEDFAVYYCQHYSGYPLTFGGGTKVEIKR

The target in the test is T1, human B7H3 (human). As to the kind of experiment: FACS on CHO cells over-expressing human B7H3.
As for B1, the binding result is “binds”. As for B2, the binding result is given as “binds”. Next, B3: “binds”.
